Among the data in paper doi:10.1101/2021.04.01.438077 are binding values, retold here.

By UniProt entry, the sequences of proteins in these tests, tags left out.
UniProt Q9UHB6: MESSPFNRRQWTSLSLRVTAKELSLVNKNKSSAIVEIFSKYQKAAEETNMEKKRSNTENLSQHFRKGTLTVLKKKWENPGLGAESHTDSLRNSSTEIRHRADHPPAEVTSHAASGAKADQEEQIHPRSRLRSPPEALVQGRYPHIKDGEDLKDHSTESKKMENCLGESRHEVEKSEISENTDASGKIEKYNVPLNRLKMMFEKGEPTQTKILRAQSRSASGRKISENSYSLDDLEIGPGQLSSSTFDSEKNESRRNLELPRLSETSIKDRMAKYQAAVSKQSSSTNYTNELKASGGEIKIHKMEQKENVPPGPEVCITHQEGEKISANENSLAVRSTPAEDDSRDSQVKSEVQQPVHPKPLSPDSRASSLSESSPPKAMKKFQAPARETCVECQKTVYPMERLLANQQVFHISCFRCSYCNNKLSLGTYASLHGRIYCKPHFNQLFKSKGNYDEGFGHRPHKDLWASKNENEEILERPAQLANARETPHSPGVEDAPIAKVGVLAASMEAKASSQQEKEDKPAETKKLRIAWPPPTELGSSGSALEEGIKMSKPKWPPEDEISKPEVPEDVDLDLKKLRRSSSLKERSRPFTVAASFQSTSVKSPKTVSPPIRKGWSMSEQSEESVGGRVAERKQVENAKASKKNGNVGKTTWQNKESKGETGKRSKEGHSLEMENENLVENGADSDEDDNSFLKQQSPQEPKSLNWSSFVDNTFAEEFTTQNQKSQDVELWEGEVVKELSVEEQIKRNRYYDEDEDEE
UniProt O60610: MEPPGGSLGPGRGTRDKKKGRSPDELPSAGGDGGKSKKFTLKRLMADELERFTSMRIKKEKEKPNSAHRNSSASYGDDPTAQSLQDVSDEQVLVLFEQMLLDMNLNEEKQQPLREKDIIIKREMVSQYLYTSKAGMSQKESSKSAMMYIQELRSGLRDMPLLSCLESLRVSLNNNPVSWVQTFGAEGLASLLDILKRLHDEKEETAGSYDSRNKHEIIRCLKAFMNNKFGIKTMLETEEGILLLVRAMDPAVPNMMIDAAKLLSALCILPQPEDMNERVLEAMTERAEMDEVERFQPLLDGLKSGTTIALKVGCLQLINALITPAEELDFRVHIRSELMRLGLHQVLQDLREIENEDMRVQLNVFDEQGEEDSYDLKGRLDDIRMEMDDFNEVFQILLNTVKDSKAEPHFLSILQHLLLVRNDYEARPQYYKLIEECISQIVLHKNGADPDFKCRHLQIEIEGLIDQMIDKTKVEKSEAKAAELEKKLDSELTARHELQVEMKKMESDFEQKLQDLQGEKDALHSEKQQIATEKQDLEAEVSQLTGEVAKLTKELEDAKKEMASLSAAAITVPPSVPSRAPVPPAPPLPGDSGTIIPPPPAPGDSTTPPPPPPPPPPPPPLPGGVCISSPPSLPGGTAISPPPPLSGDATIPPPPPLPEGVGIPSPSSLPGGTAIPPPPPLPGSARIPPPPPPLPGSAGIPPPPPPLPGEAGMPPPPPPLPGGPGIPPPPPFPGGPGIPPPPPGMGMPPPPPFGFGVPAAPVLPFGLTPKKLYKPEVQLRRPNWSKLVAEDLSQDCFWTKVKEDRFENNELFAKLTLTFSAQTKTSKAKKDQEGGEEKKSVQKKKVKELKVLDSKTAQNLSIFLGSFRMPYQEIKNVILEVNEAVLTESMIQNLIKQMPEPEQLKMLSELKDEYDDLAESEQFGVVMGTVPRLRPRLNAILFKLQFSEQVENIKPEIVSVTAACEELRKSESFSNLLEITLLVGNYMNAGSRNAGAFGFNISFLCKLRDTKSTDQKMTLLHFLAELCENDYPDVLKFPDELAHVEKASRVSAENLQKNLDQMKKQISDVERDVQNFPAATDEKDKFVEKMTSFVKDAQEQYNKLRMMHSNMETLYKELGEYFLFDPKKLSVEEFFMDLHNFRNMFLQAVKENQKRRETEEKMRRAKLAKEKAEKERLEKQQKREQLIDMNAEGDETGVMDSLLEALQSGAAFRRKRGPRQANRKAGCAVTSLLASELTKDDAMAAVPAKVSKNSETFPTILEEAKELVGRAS

The target in assay [1] is T1, Flag-Rab40b-4A (UniProt Q12829).
T1 sequence: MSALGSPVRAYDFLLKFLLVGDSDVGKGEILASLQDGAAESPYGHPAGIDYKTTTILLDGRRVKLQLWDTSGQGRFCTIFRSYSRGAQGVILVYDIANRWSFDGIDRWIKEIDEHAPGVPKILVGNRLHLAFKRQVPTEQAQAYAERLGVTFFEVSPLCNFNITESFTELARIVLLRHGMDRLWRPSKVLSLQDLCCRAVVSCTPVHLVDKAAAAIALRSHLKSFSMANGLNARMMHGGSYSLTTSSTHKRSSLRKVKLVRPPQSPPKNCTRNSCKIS
The assay is described as follows: affinity purification with mass spectrometry.

Assay [2] addresses T1, Flag-Rab40b-4A. In words: affinity purification with mass spectrometry. The source holds these as a separate data set.

Like-named read-outs stand apart in the source and are kept apart here. These are yes or no findings as the source states them, for the method shown. In cells and extracts the contact can be indirect. A yes stands for co-enrichment or nearness to the bait. Other partners may have been found. Sequences can lack the tags named with a protein.

As to “EPLIN (Epithelial Protein Lost In Neoplasia), endogenous (from UniProt Q9UHB6 1-759)”, the binding entry in the assay with Flag-Rab40b-4A [1] is recorded as “binds”. On to “DIAPH1 (endogenous) (from UniProt O60610 1-1272)”, for which the binding result in the assay with Flag-Rab40b-4A [1] is given as “binds”.

B1: ARHGAP42 (endogenous) (protein, UniProt A6NI28 1-874)
chain: MGLPTLEFSDSYLDSPDFRERLQCHEIELERTNKFIKELIKDGSLLIGALRNLSMAVQKFSQSLQDFQFECIGDAETDDEISIAQSLKEFARLLIAVEEERRRLIQNANDVLIAPLEKFRKEQIGAAKDGKKKFDKESEKYYSILEKHLNLSAKKKESHLQEADTQIDREHQNFYEASLEYVFKIQEVQEKKKFEFVEPLLSFLQGLFTFYHEGYELAQEFAPYKQQLQFNLQNTRNNFESTRQEVERLMQRMKSANQDYRPPSQWTMEGYLYVQEKRPLGFTWIKHYCTYDKGSKTFTMSVSEMKSSGKMNGLVTSSPEMFKLKSCIRRKTDSIDKRFCFDIEVVERHGIITLQAFSEANRKLWLEAMDGKEPIYTLPAIISKKEEMYLNEAGFNFVRKCIQAVETRGITILGLYRIGGVNSKVQKLMNTTFSPKSPPDIDIDIELWDNKTITSGLKNYLRCLAEPLMTYKLHKDFIIAVKSDDQNYRVEAVHALVHKLPEKNREMLDILIKHLVKVSLHSQQNLMTVSNLGVIFGPTLMRAQEETVAAMMNIKFQNIVVEILIEHYEKIFHTAPDPSIPLPQPQSRSGSRRTRAICLSTGSRKPRGRYTPCLAEPDSDSYSSSPDSTPMGSIESLSSHSSEQNSTTKSASCQPREKSGGIPWIATPSSSNGQKSLGLWTTSPESSSREDATKTDAESDCQSVASVTSPGDVSPPIDLVKKEPYGLSGLKRASASSLRSISAAEGNKSYSGSIQSLTSVGSKETPKASPNPDLPPKMCRRLRLDTASSNGYQRPGSVVAAKAQLFENVGSPKPVSSGRQAKAMYSCKAEHSHELSFPQGAIFSNVYPSVEPGWLKATYEGKTGLVPENYVVFL
Regarding B1, the binding result with Flag-Rab40b-4A [2] is given as “binds”.

B2: ARHGAP19 (endogenous) (protein, UniProt Q14CB8 1-494)
chain: MATEAQSEGEVPARESGRSDAICSFVICNDSSLRGQPIIFNPDFFVEKLRHEKPEIFTELVVSNITRLIDLPGTELAQLMGEVDLKLPGGAGPASGFFRSLMSLKRKEKGVIFGSPLTEEGIAQIYQLIEYLHKNLRVEGLFRVPGNSVRQQILRDALNNGTDIDLESGEFHSNDVATLLKMFLGELPEPLLTHKHFNAHLKIADLMQFDDKGNKTNIPDKDRQIEALQLLFLILPPPNRNLLKLLLDLLYQTAKKQDKNKMSAYNLALMFAPHVLWPKNVTANDLQENITKLNSGMAFMIKHSQKLFKAPAYIRECARLHYLGSRTQASKDDLDLIASCHTKSFQLAKSQKRNRVDSCPHQEETQHHTEEALRELFQHVHDMPESAKKKQLIRQFNKQSLTQTPGREPSTSQVQKRARSRSFSGLIKRKVLGNQMMSEKKKKNPTPESVAIGELKGTSKENRNLLFSGSPAVTMTPTRLKWSEGKKEGKKGFL
As to B2, the binding entry with Flag-Rab40b-4A [2] is reported as “binds”.
